According to article PMC7210770:
No constants are given. Whether binding was seen depends on the method and setting. Binding can be weak; no strength is given. For some assays here: Binding seen in cells or lysates may run through a third protein.

Amino acid sequences for entries named in this document (tags omitted). A change or cut given only in a name is not applied to a line headed by its entry.
UniProt Q38998: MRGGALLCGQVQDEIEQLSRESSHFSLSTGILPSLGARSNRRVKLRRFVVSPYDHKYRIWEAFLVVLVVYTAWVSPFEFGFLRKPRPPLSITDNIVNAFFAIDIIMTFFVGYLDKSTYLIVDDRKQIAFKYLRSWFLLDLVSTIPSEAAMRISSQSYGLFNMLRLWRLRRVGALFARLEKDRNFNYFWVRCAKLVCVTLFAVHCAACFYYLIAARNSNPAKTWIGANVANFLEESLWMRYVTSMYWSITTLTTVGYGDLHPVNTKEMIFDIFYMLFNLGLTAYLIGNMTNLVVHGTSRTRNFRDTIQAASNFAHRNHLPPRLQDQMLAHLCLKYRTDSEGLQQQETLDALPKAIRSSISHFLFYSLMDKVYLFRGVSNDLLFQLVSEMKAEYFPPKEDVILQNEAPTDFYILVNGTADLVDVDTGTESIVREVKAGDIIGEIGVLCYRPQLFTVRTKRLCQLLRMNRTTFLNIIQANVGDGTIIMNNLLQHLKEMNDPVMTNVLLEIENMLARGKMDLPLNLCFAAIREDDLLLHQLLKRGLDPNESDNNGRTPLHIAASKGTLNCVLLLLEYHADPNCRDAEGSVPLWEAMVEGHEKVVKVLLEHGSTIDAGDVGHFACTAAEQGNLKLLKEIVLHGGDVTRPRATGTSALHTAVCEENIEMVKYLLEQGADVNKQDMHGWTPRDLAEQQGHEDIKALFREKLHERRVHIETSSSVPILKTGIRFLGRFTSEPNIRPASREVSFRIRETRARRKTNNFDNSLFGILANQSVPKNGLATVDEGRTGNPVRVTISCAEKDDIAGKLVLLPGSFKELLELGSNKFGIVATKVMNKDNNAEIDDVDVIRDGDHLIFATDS

T1: CIPK25ΔC (kinase domain of CIPK25), yeast two-hybrid construct in pDEST32 (Arabidopsis thaliana (amplified from Col-0 genomic DNA)) (UniProt Q8W1D5)
T1 sequence: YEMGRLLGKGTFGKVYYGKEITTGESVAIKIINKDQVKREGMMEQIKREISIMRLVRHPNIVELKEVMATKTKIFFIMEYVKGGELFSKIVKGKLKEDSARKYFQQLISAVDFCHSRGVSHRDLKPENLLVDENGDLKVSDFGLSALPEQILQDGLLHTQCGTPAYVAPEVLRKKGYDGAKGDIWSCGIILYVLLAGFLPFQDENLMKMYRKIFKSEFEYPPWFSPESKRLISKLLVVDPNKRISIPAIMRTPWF

B1: CIPK25ΔC (kinase domain of CIPK25, lacking the C-terminal domain), BiFC construct in pDH51-GW-YFPC (domain or fragment, UniProt Q8W1D5 43-297)
chain: T1 sequence

Tests used:
[1] = biological target: T1, CIPK25ΔC (kinase domain of CIPK25), yeast two-hybrid construct in pDEST32 (Arabidopsis thaliana (amplified from Col-0 genomic DNA)); test: two-hybrid; yeast MaV203, pDEST32 / pDEST22; interaction screened on SD-LTUH + 15 mM 3AT and by X-gal staining; empty vectors as negative controls
[2] = biological target: C-terminal cytosolic domain of AKT1 (AKT1c), BiFC construct in pDH51-GW-YFPN (Arabidopsis) (UniProt Q38998); test: split reporter; BiFC with split YFP (pDH51-GW-YFPC / pDH51-GW-YFPN) co-transfected into Arabidopsis mesophyll protoplasts, 16 h at 25 °C in the dark, confocal microscopy; empty vectors as negative controls

binding [1] | binding [2] | Molecule
binds |  | C-terminal cytosolic domain of AKT1 (AKT1c), yeast two-hybrid construct in pDEST22 (from UniProt Q38998) (domain or fragment)
 | binds | B1
